Data on one substance can be found in paper PMC3796546.

The chains behind the UniProt entries cited, without tags or fusion partners.
UniProt P25694: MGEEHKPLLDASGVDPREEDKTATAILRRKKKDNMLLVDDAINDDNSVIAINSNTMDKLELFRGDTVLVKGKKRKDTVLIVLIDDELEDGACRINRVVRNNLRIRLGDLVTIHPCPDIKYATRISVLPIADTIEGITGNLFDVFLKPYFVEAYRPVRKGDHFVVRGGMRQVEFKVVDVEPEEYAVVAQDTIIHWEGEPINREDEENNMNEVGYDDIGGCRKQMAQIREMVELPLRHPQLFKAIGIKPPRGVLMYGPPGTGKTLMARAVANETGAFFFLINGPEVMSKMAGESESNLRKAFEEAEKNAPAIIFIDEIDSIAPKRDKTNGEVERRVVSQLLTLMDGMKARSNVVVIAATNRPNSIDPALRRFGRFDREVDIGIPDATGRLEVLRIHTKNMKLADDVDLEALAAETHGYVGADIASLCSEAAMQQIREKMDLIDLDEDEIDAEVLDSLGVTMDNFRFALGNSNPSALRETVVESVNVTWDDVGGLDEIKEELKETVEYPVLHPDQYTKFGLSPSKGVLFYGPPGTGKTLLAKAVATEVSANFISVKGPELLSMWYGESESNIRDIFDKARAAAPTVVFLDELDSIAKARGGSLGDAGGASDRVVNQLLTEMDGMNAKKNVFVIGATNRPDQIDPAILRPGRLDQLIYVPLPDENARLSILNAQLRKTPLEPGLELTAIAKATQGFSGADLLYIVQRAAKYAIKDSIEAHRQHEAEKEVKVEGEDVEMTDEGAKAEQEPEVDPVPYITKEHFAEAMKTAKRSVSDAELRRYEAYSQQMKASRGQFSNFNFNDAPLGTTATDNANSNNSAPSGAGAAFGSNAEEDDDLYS

Results are given in words; binding and its absence hold for the method and conditions named. In cells and extracts the contact can be indirect. Some entries that bind do so weakly or less than the wild type.

Common to all, as to test: co-IP; yeast crude extract in RNP buffer (0.1 M HEPES pH 7.4, 100 mM NaCl, 0.1% NP-40) on anti-HA agarose beads, 4°C, 90 minutes; HA-Irc20 derivatives precipitated, Cdc48–3xMyc detected by anti-MYC western blot
Background: A western blot detects proteins with antibodies after separation by electrophoresis.

Assay [1] concerns the target T1, 3xHA-Irc20 (a.a. 584–882) (S. cerevisiae) (UniProt Q06554).
T1 sequence: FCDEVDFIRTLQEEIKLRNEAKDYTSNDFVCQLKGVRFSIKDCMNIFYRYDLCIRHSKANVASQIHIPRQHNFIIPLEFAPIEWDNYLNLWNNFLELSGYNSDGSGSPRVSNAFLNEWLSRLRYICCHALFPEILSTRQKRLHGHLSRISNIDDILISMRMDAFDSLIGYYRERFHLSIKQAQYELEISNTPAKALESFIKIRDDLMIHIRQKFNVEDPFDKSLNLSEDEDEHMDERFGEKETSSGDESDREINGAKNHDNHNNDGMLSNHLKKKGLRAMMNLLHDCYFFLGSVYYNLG

Assay [2] has as its target 3xHA-Irc20-C1239A RING mutant (S. cerevisiae) (UniProt Q06554).
In assay [3] the target is T2, 3xHA-Irc20 (a.a. 1–1238) (S. cerevisiae) (UniProt Q06554).
T2 sequence: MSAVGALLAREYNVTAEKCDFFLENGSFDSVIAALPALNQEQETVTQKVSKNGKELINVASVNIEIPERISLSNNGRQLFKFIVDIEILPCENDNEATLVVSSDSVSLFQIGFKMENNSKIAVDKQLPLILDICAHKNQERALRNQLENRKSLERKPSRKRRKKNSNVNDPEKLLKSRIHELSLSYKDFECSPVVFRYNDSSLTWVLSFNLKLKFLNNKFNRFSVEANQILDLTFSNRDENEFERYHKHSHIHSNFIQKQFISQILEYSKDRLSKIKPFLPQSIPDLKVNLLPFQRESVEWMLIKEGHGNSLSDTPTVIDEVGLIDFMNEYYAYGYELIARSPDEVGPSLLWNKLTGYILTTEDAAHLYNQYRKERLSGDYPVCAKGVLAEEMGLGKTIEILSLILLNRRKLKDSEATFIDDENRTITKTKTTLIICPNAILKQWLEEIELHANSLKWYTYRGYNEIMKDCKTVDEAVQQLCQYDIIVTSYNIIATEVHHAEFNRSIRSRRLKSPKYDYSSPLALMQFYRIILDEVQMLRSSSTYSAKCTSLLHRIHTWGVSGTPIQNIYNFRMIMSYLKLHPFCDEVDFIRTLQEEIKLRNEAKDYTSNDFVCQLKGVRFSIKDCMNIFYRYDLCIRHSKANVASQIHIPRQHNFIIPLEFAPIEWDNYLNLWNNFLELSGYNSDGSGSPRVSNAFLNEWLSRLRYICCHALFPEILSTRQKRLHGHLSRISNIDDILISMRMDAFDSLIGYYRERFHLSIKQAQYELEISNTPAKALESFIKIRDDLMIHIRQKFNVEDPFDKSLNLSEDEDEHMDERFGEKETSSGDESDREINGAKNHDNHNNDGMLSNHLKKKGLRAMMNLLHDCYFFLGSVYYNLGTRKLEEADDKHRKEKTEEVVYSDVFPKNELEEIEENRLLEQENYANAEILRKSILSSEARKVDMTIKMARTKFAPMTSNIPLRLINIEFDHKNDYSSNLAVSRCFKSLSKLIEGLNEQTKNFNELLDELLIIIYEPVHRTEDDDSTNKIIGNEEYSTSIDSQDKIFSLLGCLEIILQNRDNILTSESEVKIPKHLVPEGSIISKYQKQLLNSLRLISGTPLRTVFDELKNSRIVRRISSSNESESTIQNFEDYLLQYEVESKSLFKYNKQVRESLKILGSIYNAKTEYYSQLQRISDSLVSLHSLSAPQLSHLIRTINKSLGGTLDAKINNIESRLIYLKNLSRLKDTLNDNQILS

For Cdc48–3xMyc (from UniProt P25694 1-835), the results for the binding result in assay [1], in assay [2] and in assay [3] were “no binding”, “binds” and “binds”, respectively.
